Source: paper PMC5479826 (Scientific Reports, 2017)
Plain letter strings leave the end groups untold. One purity is given for all peptides; the source may state it once.

Test: general procedure: Fmoc solid-phase peptide synthesis; NovaPEG Rink Amide resin; HBTU/DIEA
Conditions: whole synthesis

Substance	final purity (method not given) [%]
NLRPCEQHLMQKIQRD	>95
MRRERGRGGDSSSS	>95
CDELNEMENTQR	>95
RRCQSQLER	>95
KRELRMLPQQ	>95
ERDPYSP^OHSQDPYSP^OHS	>95
CDLEVESGGRDRY	>95
KPCEQHIMQRI	>95
RQQEQQFKRELRNLPQQ	>95
SDRLQGRQQ	>95
HASARQQWEL	>95
CEALQQIMENQCD	>95
CNFRAPQRCDLDV	>95
